Data taken from publication PMC4758748.
Results are given in words; binding and its absence hold for the method and conditions named. For part of these data: Binding seen in cells or lysates may run through a third protein. Some entries that bind do so weakly or less than the wild type. For part of these data: Sequences can lack the tags named with a protein. Values belong to the binder of their own block, whether it stands above or below them.

Legend:
[1] = biological target: T1, Streptag-Chs2-215-629 (S. cerevisiae) (UniProt P14180); experiment: pull-down; E. coli cultures expressing a Streptag fusion and a 6His fusion mixed after IPTG induction, one common cell extract with two recombinant proteins; Strep-Tactin Superflow (eluted with 2.5 mM d-Desthiobiotin), then Ni-NTA agarose (eluted with 250 mM imidazole); SDS-PAGE, Coomassie, immunoblot (anti-Streptag, anti-His), mass spectrometry of the band
T1 sequence: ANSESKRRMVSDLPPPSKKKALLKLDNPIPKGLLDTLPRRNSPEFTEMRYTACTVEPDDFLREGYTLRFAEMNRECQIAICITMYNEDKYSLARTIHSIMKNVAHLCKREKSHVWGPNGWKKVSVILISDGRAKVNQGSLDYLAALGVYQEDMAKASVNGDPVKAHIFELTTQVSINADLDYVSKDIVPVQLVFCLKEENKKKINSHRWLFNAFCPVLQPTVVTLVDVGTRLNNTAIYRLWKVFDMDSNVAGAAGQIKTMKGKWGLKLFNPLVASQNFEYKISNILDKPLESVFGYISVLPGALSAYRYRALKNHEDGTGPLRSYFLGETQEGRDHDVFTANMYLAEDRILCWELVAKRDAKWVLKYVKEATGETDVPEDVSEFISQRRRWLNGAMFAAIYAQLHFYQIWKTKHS

[2] = biological target: T2, Chs2-1-629 (two-hybrid fusion) (S. cerevisiae) (UniProt P14180); experiment: two-hybrid; vectors pGADT7 and pGBKT7 (Clontech); growth for two or three days at 30°C on Synthetic Complete medium lacking leucine, tryptophan and histidine (selective)
T2 sequence: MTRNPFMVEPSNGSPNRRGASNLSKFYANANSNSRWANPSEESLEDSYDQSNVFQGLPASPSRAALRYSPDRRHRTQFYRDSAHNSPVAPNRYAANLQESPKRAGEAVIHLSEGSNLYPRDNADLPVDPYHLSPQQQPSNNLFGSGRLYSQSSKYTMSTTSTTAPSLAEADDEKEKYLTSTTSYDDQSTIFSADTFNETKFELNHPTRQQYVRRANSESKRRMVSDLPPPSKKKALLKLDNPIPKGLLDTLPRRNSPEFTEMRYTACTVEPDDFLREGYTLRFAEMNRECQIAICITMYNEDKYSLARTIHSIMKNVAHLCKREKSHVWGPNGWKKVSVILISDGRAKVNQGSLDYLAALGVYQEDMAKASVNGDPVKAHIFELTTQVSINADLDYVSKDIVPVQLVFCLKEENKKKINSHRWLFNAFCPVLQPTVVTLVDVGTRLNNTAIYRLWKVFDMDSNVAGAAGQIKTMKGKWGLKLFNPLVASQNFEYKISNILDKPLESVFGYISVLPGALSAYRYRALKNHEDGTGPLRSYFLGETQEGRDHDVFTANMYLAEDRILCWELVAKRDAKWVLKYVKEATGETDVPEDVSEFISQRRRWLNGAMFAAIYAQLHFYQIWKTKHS

[3] = biological target: T3, Chs2-215-629 (two-hybrid fusion) (S. cerevisiae) (UniProt P14180); experiment: as above
T3 sequence: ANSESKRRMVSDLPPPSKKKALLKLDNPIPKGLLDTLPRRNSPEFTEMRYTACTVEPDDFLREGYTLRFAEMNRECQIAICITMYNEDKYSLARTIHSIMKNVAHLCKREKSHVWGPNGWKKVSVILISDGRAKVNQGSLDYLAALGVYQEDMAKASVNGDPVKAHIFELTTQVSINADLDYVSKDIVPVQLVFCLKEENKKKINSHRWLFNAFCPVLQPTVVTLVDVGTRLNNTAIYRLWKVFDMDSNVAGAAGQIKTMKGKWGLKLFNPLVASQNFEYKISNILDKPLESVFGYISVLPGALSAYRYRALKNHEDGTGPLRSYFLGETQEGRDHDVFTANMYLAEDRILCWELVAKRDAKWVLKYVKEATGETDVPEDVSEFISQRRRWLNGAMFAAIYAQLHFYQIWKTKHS

[4] = biological target: T4, Inn1-TAP (S. cerevisiae) (UniProt P53901); experiment: co-IP; yeast cell extracts 105 minutes after release from G1 arrest (alpha factor) at 24°C, cells in cytokinesis; TAP fusions immunoprecipitated on IgG beads; immunoblot
T4 sequence: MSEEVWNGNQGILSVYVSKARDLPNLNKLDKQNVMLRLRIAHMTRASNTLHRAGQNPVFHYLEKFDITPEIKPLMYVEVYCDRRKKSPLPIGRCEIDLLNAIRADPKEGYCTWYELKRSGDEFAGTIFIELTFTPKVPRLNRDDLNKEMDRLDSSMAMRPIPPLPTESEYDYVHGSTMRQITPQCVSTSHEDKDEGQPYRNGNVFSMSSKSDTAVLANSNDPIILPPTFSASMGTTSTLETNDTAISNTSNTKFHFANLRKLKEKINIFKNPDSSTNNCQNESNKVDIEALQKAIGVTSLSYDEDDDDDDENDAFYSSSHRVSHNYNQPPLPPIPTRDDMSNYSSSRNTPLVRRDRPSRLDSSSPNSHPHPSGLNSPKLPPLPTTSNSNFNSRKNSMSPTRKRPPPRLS

binding [1]: binds
B1: Inn1-K31A (recombinant, E. coli) (protein, UniProt P53901 1-409)
chain: MSEEVWNGNQGILSVYVSKARDLPNLNKLDAQNVMLRLRIAHMTRASNTLHRAGQNPVFHYLEKFDITPEIKPLMYVEVYCDRRKKSPLPIGRCEIDLLNAIRADPKEGYCTWYELKRSGDEFAGTIFIELTFTPKVPRLNRDDLNKEMDRLDSSMAMRPIPPLPTESEYDYVHGSTMRQITPQCVSTSHEDKDEGQPYRNGNVFSMSSKSDTAVLANSNDPIILPPTFSASMGTTSTLETNDTAISNTSNTKFHFANLRKLKEKINIFKNPDSSTNNCQNESNKVDIEALQKAIGVTSLSYDEDDDDDDENDAFYSSSHRVSHNYNQPPLPPIPTRDDMSNYSSSRNTPLVRRDRPSRLDSSSPNSHPHPSGLNSPKLPPLPTTSNSNFNSRKNSMSPTRKRPPPRLS

binding [2]: no binding
binding [3]: no binding
B2: Cyk3-475-594 (two-hybrid fusion) (domain or fragment, UniProt Q07533 475-594)
chain: ARYSTVLEKLRGIYIFCTEMFALTDDNGTSDFSAEPQNLEKILYRKHCTPYELTWLFKKLANSLGITCEIVIGFLKTPSAINWEFKYNHCWLRILVNKEWRFIDVILGNVTNPIHEFVNN

binding [4]: binds
B6: Iqg1-6HA (protein, UniProt Q12280 1-1495)
chain: MTAYSGSPSKPGNNNSYLNRYVENLGTNVTPPLRPQSSSKINSSLNIASPSHLKTKTSASNSSATILSKKVESSVSKLKPSLPNKLVGKYTVDLSNYSKIELRYYEFLCRVSEVKIWIEAVIEEALPSEIELCVGDSLRNGVFLAKLTQRINPDLTTVIFPAGDKLQFKHTQNINAFFGLVEHVGVPDSFRFELQDLYNKKNIPQVFETLHILISMINKKWPGKTPALTNVSGQISFTKEEIAACKKAWPRIRDFKSLGTNINTAPASPEEPKEKRSGLIKDFNKFERPNIPVEEILITPRKNITDANCSDFSNTPSPYNEAPKMSNLDVVVEKRKFTPIEPSLLGPTPSLEYSPIKNKSLSYYSPTISKYLTYDTEFYTRRSRAREEDLNYYQTFKYSPSHYSPMRRERMTEEQFLEKVVQLQNICRGVNTRFNLYIQKRLLNLFEQDILRFQACLRGNKFRVLSSMYLPIRRAKIDVPHVEAIQSRIKGSRIRYKYDKLKFTLSRFSCTVELLQAYCRSKLLKTTVNTKLNDIEISHYPLTKLQSYMRASYVRKKVMSLNTKLNDERESIMKFSAIIRGNVVRCSEDAILSAVHDVHKENISKLQSLIRGIFTRSCLASIIYSLGKENCNIIQLSACIRGNAVRHKVQSLFAPENNLSETVHDLQGLVRGILVRYTLDLVDDIVEYNNLALFQAFSRGALVRESLDQKSSFYKRNVRSVIMIQSWIRKSLQRSAYLELLDCPNPSLWAVKKFVHLLNGTATIEEVQNQLESCQASLDSENMKKERLLKSIRQQLNINGVLDKFGLLKDKDHELGISDSTIPKSKYQKYEKLFYMLQVDPSYWKLLYLKEPEFVAKNVYMTFGTVNQRMNDRERSYFTRFVCEMLQNAINEAPSIESFLDNRSQFWQTILQDFLRRESPEFFSIIVPVLDYLSDPVVDFESDPYKIYQEIHGFSSPQHCSPVDDASTKNKFIDNLRCLWHAIEMVAEIYTRKVHTIPVEIRYLCTKIFCYAADKNIEEIDSLRAISSILVNVFVSEYLVNREYYGYKDSNVQKNNQKIDILMKSLATVFEIKNFDGFLDPLNQYANEIKPHIKDVLYNVLVDPEYEQEGDRLIYLDMVSPSPKLELLTEKVLEISGKFEEYLNEFPEADILHDILEKNLDNSSFPRSGRVTLELDASAYRFLVSDDKMRKIYDQVKRAFVYMMQIEDVDTNLYDLSISTILPQDEPNFANFLEQNPKIRDDPMIQKLKPLKYFTLKNVTLKKIHELESTGTFCSSDNKLQNFLNDIANTIKNPNYAIDYVTQEIYITKETLTKISEMNHSLDIELSRLKKHVDHTIKDFQKAKDFSPVHKSKFGNFKNAVKKVQGRERSELQGMKFKWNTKQLYERGVLKTIRGEKLAELTVKVFGSSGPKFPDIIFKISTSDGSRFGIQMIDKRKGPDKRYSDDVDSFSFKDLIKTQVEPKIETWKLFHSNVVVNNSQLLHLIVSFFYKRNAL

binding [2]: binds
binding [3]: binds
B7: Cyk3-765-885 (two-hybrid fusion) (domain or fragment, UniProt Q07533 765-885)
chain: NMKYEFVIKIPSESIQKIELYIVEPQSRYLFVGNEYSFEVIQSPSDGIVYSSDEGPNQNRKQPMAIKSPSGRVHELVKSDPHFPYGTWKGSIKIKEPGVWSALVIADSGIGWSVFAEWLCV

Further lines, the binder ahead of its results:

B3: 6His-tagged-Cyk3 (protein, UniProt Q07533 1-885)
chain: MATNLTSLKPPFKVKARYGWSGQTKGDLGFLEGDIMEVTRIAGSWFYGKLLRNKKCSGYFPHNFVILLEERLNSSTENGRQPSKIVESFEKSNKVVIPPVPSRYSDERPRPKKKLSSSMPNSPKKPVDSLTKARKAKSKEMVNEKNIYNTQSSRHHNNSAPNLPLASHSKPQVRNFEESMNNPLPPLPPLPDLDNMRKTDKRAPKKSYSANDLHMARSSREYNYYKDNQKFYDGFIPEKRYSLEEDSISSGLFSNSQYLNDSACSSENSFALMSDFSATSAGSFARHKYAQSFSDSLQRSQNANGCSTKINDSQEFGDSNASSRNGKMGDILRKIIIPKRNTNIYSSSVSSPKSPKAYPKLPDIQNLNLSATPDEARDWIAVKCHLNRARTLTKYDKHPRYMRALEENRDLILHPQDSIYNGLNTNEVKGNTKPGLVDVELAELNIEYIDKMTWKRCIRDGTMTLDSWAQTTFSARYSTVLEKLRGIYIFCTEMFALTDDNGTSDFSAEPQNLEKILYRKHCTPYELTWLFKKLANSLGITCEIVIGFLKTPSAINWEFKYNHCWLRILVNKEWRFIDVILGNVTNPIHEFVNNRKIKKAENSYFLMAPLEMIYTHIPPREFEQHIVPSIDQLSALYLPLVFPSFFKNELKLYKFSTALSFLEDSEIYECSLEIPNDVEVFASVVIPTDNEEASSAYRNMELALTQIKKQKAESGRRIALIKAVLPPNVNKGSLYIHSGVRGTQTSIANIHPLSMMVPLTHKGSNMKYEFVIKIPSESIQKIELYIVEPQSRYLFVGNEYSFEVIQSPSDGIVYSSDEGPNQNRKQPMAIKSPSGRVHELVKSDPHFPYGTWKGSIKIKEPGVWSALVIADSGIGWSVFAEWLCV
binding [1]: binds

B4: 6His-tagged-Inn1-C2 (domain or fragment, UniProt P53901 1-134)
chain: MSEEVWNGNQGILSVYVSKARDLPNLNKLDKQNVMLRLRIAHMTRASNTLHRAGQNPVFHYLEKFDITPEIKPLMYVEVYCDRRKKSPLPIGRCEIDLLNAIRADPKEGYCTWYELKRSGDEFAGTIFIELTFT
binding [1]: binds

B5: 6His-tagged-Inn1-C2-K31A (domain or fragment, UniProt P53901 1-134)
chain: MSEEVWNGNQGILSVYVSKARDLPNLNKLDAQNVMLRLRIAHMTRASNTLHRAGQNPVFHYLEKFDITPEIKPLMYVEVYCDRRKKSPLPIGRCEIDLLNAIRADPKEGYCTWYELKRSGDEFAGTIFIELTFT
binding [1]: binds
